The target in test [1] is T1, HA-NIS (full-length sodium–iodide symporter with a triple HA tag in the fourth extracellular loop) (human) (UniProt Q92911).
T1 sequence: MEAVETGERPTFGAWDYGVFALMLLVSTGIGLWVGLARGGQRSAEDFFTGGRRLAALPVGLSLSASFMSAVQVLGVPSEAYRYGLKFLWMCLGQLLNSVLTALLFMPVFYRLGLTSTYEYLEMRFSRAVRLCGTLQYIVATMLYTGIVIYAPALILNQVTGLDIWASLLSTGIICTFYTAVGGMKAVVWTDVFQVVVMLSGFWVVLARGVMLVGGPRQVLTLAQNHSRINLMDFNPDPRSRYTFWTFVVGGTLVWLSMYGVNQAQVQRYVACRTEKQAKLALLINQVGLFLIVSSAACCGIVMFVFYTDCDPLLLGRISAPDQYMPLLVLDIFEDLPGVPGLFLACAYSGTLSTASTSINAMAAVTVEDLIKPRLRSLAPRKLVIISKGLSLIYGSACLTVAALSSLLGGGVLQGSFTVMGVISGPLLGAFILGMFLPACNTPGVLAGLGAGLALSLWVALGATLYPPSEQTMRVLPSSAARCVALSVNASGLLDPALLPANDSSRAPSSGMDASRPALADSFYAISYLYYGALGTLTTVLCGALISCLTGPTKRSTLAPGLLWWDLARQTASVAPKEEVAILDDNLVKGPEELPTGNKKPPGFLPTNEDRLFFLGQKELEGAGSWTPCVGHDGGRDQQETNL
The test is described as follows: co-IP; PM-IP: intact HA-NIS-TPC1 cells on ice labelled with rabbit anti-HA (4 µg/mL, 2 h, 4 °C), washed, lysed in 1% NP40, 150 mM NaCl, Tris pH 7.5; protein G Dynabeads; washes with 300 mM NaCl; Western blot; non-specific IgG as control.

Sequences of proteins named here, by UniProt entry; tags and fusion partners are left off.
UniProt P12004: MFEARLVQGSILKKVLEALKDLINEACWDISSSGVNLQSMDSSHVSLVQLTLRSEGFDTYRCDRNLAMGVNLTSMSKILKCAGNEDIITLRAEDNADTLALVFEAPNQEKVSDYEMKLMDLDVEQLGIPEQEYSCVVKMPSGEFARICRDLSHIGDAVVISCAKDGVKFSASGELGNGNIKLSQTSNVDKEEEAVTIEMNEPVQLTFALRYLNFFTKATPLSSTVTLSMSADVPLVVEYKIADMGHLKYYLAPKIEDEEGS
UniProt P46940: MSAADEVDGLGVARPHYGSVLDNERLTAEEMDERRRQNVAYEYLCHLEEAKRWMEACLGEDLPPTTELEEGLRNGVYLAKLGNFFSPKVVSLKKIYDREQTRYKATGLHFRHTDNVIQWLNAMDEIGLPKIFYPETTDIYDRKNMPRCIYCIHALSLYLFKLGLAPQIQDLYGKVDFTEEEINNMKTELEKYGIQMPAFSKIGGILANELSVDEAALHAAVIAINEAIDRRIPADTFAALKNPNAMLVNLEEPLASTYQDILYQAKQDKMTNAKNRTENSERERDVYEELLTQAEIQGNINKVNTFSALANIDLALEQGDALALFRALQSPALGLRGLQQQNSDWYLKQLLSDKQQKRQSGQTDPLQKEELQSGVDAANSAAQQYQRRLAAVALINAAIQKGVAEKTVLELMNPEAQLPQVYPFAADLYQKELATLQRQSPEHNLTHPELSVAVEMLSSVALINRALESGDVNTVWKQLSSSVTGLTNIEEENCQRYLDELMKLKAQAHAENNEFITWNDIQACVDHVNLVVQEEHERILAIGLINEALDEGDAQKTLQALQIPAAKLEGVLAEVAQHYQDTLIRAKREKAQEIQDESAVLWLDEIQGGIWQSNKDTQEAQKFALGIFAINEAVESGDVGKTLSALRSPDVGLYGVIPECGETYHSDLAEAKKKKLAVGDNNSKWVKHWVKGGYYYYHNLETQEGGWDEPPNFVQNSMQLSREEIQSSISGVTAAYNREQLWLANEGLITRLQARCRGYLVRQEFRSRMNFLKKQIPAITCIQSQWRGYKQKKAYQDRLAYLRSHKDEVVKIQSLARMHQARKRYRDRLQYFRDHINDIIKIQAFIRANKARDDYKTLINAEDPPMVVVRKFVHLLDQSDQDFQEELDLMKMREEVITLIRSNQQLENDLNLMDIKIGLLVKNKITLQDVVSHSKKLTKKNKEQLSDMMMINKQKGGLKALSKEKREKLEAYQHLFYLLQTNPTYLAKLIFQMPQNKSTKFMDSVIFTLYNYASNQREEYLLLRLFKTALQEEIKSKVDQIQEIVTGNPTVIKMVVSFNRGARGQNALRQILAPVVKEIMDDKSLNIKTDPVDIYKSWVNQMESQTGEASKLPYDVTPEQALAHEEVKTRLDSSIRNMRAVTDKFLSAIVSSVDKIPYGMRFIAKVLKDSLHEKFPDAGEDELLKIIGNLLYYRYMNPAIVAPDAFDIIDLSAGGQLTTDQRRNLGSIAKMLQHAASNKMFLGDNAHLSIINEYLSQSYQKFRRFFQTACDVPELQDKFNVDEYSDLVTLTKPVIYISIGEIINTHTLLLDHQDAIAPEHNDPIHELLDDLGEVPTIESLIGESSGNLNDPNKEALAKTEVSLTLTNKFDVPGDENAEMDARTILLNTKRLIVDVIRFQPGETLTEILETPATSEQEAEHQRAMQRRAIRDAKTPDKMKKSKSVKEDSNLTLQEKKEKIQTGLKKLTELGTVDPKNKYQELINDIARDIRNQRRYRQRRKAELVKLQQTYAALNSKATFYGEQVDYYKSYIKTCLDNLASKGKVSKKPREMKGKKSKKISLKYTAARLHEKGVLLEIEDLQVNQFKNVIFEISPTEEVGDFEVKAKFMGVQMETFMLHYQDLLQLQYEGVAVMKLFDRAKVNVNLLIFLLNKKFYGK

The target in test [2] is T1, HA-NIS (full-length sodium–iodide symporter with a triple HA tag in the fourth extracellular loop) (human). The test is described as follows: co-IP; WC-IP: whole cell lysate of HA-NIS-TPC1 cells (1% NP40, 150 mM NaCl, Tris pH 7.5) with rabbit anti-HA overnight at 4 °C; protein G Dynabeads; washes with 300 mM NaCl; Western blot; non-specific IgG as control. For orientation: A western blot detects proteins with antibodies after separation by electrophoresis.

These are yes or no findings as the source states them, for the method shown. In cells and extracts the contact can be indirect. Some binding calls cover weakened binding; strength is not graded here. Sequences can lack the tags named with a protein.

The results in this text go back to paper PMC8582450.

Regarding “PCNA (proliferating cell nuclear antigen) (from UniProt P12004 1-261)”, the binding result in test [1] and in test [2] was “no binding” throughout.
For “IQGAP1 (RAS GTPase-activating-like protein IQGAP1) (from UniProt P46940 1-1657)”, the binding result in test [1] and in test [2] was “binds” in each case.
